# Results reported in PMC12370185.
# The list shows a part of the results. For part of these data: At the low end of the ranking the order means little.
# Experiments:
# Settings in all cases: 10 mM Tris-Cl pH 7.5, 50 mM NaCl, 1 mM DTT, 0.25 mg/ml BSA, 2 mM MgCl2, 0.025% Nonidet P-40, 5% glycerol; 28 nM nucleosome library; 10 min on ice then 30 min …; high values mean tight binding; double strand, one strand shown
# KLF4 + histone octamer = experiment: EMSA with sequencing
# SOX2 + histone octamer = experiment: EMSA with sequencing
# [1] = tested on: c-MYC + MAX + histone octamer; experiment: EMSA with sequencing
# OCT4 + histone octamer = experiment: Pioneer-seq (competitive nucleosome EMSA with sequencing)
Sequence,binding signal (log2 relative supershift) (KLF4 + histone octamer),binding signal (log2 relative supershift) (SOX2 + histone octamer),binding signal (log2 relative supershift) [1],binding signal (log2 relative supershift) (OCT4 + histone octamer)
GATGGACCCTATACGCGGCTCCCAACACCACCCTTCCTTCTTTTGATTCCAGCATGTGCGAGGATGCAGGACTCAACTACTATGCATTCAGGCTATGTTCTGCGACTGCACGGTGCACTGCTTTTGTAATGCAAATAGGAGGCACAAAGTGTCTCTTTGATAATGTGCAGTCAGAAGACAAAAAAGCATTCACTGAAACAGTAAAACTAATGCCAGTCGGATAGTGTTCC,1.17,1.53,0.192,-0.136
GATGGACCCTATACGCGGCTTTTCAAACACATGAGGTCCTCATGGTTGGGTAATGATCTTTTATTCACTCCTAATTGACTCACTGCTCTGTTTCCACAATGCCCACAAGTCTTTGTCATTCTACTCCTGGCTTCAACCTGCCCACCTCTCTTTGACCTCACTTAAAAGACTGTGGCCAAATTCCTTTCTTTCCACCTCAAAATTCCTATGTGCCAGTCGGATAGTGTTCC,0.945,1.42,0.61,-0.197
GATGGACCCTATACGCGGCTGTTTTGCACTTGGACAGGTATGAGTCAACTGTTGCCATAGTAATGTTGCATAACAAACCATTCCCAATCTCAGTGGTTTACAGCACAATCATTTATTCTTATGCAGGTCACCAGGGCAACTCTGGTTCAGTTGACCCAGGATTGGTTTGACTGGGTGACTCTTCTTCAGGTTGTGGATCAATTACCCCTGTGCCAGTCGGATAGTGTTCC,0.754,0.294,0.402,-0.212
GATGGACCCTATACGCGGCATGAGGAACAGCGTTTGTCTTTGTAACAGCTTGAAGAAAGACCCTTTCCAGGACCCAGTCATGCAGTTACAATCTTGACCTCTTTCTTATGCTGGGAACATGCATACAGCAGCACCTCCCATGTGTTTTCTTGTCCCATTGACTGTCCATTCACTTCCCATCTGTTTTGCAGTCTTAAAGGAACAGAAGGGTGCCAGTCGGATAGTGTTCC,0.852,1.3,0.706,-0.237
GATGGACCCTATACGCGGCAAATGGGAGTATTTAGCTGGTATATGACCTTCTTCTAGGAACACTTGACTGGTAAGGCAAAAATGCCTCAAGGGAGCATGTGCACAGTTTCAGTAAACACTGTGCATGTGGCCCCTCCCAAGTGCTGGCAGGCTACTGTACATGTGGACAGTCCACCCCAAGGGAAGAATCAGGAGAAAGGATGCAACCCTTGCCAGTCGGATAGTGTTCC,2.31,0.0232,0.401,-0.218
GATGGACCCTATACGCGGCTCAAACATCACCAGTGAAACACATGGGCAGCATCCAGGGACTAACACAGGGCAAATGTTTCCTGTGTACCGAAAGGCATAATTTGCAACACGAAGGAACATTATCTCCATGAACACAAGGCTGCTCTCCTAGATGAATGAGGGATAGGACCGTGCAGTTCAAGTCCACTCAAGGGTGGCACAATCAGTGTCTGCCAGTCGGATAGTGTTCC,2.13,0.818,0.725,-0.393
GATGGACCCTATACGCGGCGTGGCTAGTGGGAGGGGGCATCTCTGTGAGGCATGTTTATGAAAAGGCAGTGCAGGCCTGGGCCTGTCCTCAGCACTGGCCCTTGTCAAGGCCTGTTTCCTTGAGCCTGGAGTCCTTTGGGAGCTGTGAGAACCAAAAGAGAAACGGCACACCTGTACATTTACTCATCCTTTTAATTTAGGCAAGGATTCTGCCAGTCGGATAGTGTTCC,2.57,0.306,0.168,-0.0469
GATGGACCCTATACGCGGCCAAGTGAGAAAGGCAGAAGAACTGAGTTAGCCCAAGGCCACCCAGAGAACTGTCCTGTACACATGTGCATGGATGATGCATCCAGAGAGTGTGCTGAAGGCTGAGTCACCTCCACCCCCAACACCAACAGGGAGGATAATGAGTCAACAGGATTACCTCTTCTCAGCCCTTCTAACTTACAGCTGGAGGGCTGCCAGTCGGATAGTGTTCC,1.57,0.324,0.123,-0.196
GATGGACCCTATACGCGGCTCTGCTGGGCACTCTTTGTGGGATGCACACATGGGTGGGTGTGTCTGCACTGAGCCCTTAGACACACCTAAGCCCAGCCCCATTGTGAATAAGGATGAGCATGTGTGAGCCTAGCTGTCTTTCAGGAAAGAGTCAGAAATCAGTTAATGGATACAGTTAAGTGAACGAGACCCATGCGCCTTGGGATGGCCTGCCAGTCGGATAGTGTTCC,2.05,0.0167,0.799,-0.0197
GATGGACCCTATACGCGGCGGGGGTGGGTATGCTTAGTAATACAGAGTGGTGTGTGTATGGTATATGTGTGGCAGTGCAGTGCGTGTATCTGGCATGTCGAGTGTGCACATGGCATATACGGATCAAATCGGGTGTGTGTGGTACATAGGAGTGGGTGGGCACACAAACAGGACTCATGTATGCGGAGGACTCTGCCTTTCTGTGTTAGCTGCCAGTCGGATAGTGTTCC,2.27,0.645,0.53,-0.501
GATGGACCCTATACGCGGCAAGTGTCACACATTTTTACACCTGCCTGGGGTGCCTTTCCCTCCCTCCTCCCTTGACCCTCTGAAAAACACCACCTTCCAGTCCTTCCCCGCCAATTGCTCCATGACATGTCTCTTCAAGCCCTGAGTCAGTGAACCGTGCTACATGGTCTTGCATTGTACACTTGTAACCATTATCATCCCTATGACACCTGCCAGTCGGATAGTGTTCC,2.19,0.515,0.737,-0.521
GATGGACCCTATACGCGGCTCTGACCCAACCTCAGTTTTAGAAAGCCATGTGCATCAGCTTCAGGATGGAATGTTCTCAGCCTGCCTGCCTCACCTCCCTGTGGCAGCCCAACTGCCTTGAATCTGGTAGTTCTTGCATTCTGGTCCAGCCCTTCTCCCCTCCCCTTACTCAGCAGTGGCACACCTTTCTCAATAAAAGACTCAGTTCAATGCCAGTCGGATAGTGTTCC,2.29,1.06,0.589,-0.775
GATGGACCCTATACGCGGCCTCCCACACACCCATGCACATGTACTCACACTAACACACGCACGCTCACACATGTACTGTCATACACACACGTACTCACACTCATGCACACACACACCCCTCACCCACAGGCACACCAAGAGCCCTGGGGGAGAAGAGTCTGAGAGGTTTCAGGCCCTGTTGCAGGATGTGTCTGCAGCCCCATTCTCTGTTGCCAGTCGGATAGTGTTCC,2.2,0.925,0.674,-0.441
GATGGACCCTATACGCGGCAAGCCAGCTTTCTTTACCATTGTCATGTTGGCCTTGCCCTAGAAATCTGAATCACTGCATTATGATATGATAGGCTGAGCTTAGCTGTTTGTGCTGCAACGTGACCATCCCCTGCCAGCTATATTTTCAAGCTGTTTCAGGACCATGTCATTATTTTGCAAACAAACCAGCTGAATGGTTCAATGTTTCCCTGCCAGTCGGATAGTGTTCC,0.586,1.42,0.0448,-0.165
GATGGACCCTATACGCGGCCCTGTAGTGAGTCAGTGGTGCAAACAGGGATAGGTCTTTCAGATTCTAATCATGGTGCCTGTGCACTAGGCTGTGGCTAAACCTGCTTTGTAGTGTCTTTTCCTTGGGGTGACTCCTGTAGAACTGGGTGTTGCCAGCTGATATGGGTGATGCTCAGAGGCCTAAGGTTCAGGAGATTGGGAAGAGGAGGATGCCAGTCGGATAGTGTTCC,2.22,0.00087,0.232,-0.375
GATGGACCCTATACGCGGCATATTTTTGAGTGACGGAGGGAGTGTAGCTCAGAGGTTAGGTGACGGGAACCAAGTCATATGGATGCGGACTGGACCTGGACCCAGGTCTGCCGCCTCCTGAGTCACATGCTCTCCAGCGCGCCCTGACACGTCTCCCCACATCCTGCCTGTCCTCATTGGCCATGCCCTGGGGGAATGCCTTTGTGGTTGTGCCAGTCGGATAGTGTTCC,2.15,0.579,0.0688,-0.575
GATGGACCCTATACGCGGCAGTTAGAAAGGGTTTGAAATTCAGAGTGGAGCCATACTGTACAATGGTGATACCCCATGTGGCTCTCTTAGCTAAGCATGCTCTGAAGTGGAACTGAGGAGAGGGAGGAACTGAGAGACCAGGATCTGGGTGGGTCATCCACACGAACATTGCAACCACCCAGGATAATGGCAGCACTTGTGGCAAGGGGGTGCCAGTCGGATAGTGTTCC,1.8,1.21,0.748,-0.277
GATGGACCCTATACGCGGCATTCTGAGACCCAGGCTGAAGAAGCAGTGGCCGCCTGGGGCATCCTTTTCTTATGGAGAGTAGCAGGAGTGCCAGACAGGAAGCGAAAAGACATAATGCCTCTGAGTCTCTCTTTGTGCTGGCATGCCACCATTGTGCCACACCCCATTCTTCAGTCAACGCACATCCTATGGCCCAGCCCAAGGTCAAGGTGCCAGTCGGATAGTGTTCC,2.26,0.908,0.373,-0.584
GATGGACCCTATACGCGGCATCTGGATTCAAATCCTGGCCAGGCACAGCGGCTCATGCCTGTCATCTCAACAGTTTAGGAGGTCAAAGCGTGAGGGCAAGAGTTCAAGATCAGCCTGGGGAACACTGTGACACCCCGCCTGCACAAAAAAATTTAGCCGGGCATGATGGCACACGCCTATAGTCCTAGTTATGCAGGAGAACTGCTTCAGTGCCAGTCGGATAGTGTTCC,1.45,0.679,0.0936,-0.225
GATGGACCCTATACGCGGCCCTCTCCTTTCATAATCATTTCCAAAGAGACTGAACAACCGGACATGGAACTTGACAGCATAATGCCAGCAGATTTGCACATCAGACATGAACAGCCACCCACATGGGTGGAGGGGGAGCATGTGTGTAGATGTGTATGTGTCCTGATTCACTGCTATAATACATGAGCCATAAATGGCATTATTTCAAGCTGCCAGTCGGATAGTGTTCC,0.668,1.26,0.0473,-0.342
GATGGACCCTATACGCGGCGCGGTTATGTGTCTTCTTATTCAGGCTTGCTCACTGTACTTTGTTTGTGCAGGGAACAATGCTATCATGATCATTATAATGTAAACATCCCCTCCCAAAGTGTTAGGAAAAGTCTGCTGCAGCTCCCTGTGGTCTACTGTCAGTTACCACTTGTACCCATCTGTTTTATAGCCTCTTCAGTTTTGTTACTGTGCCAGTCGGATAGTGTTCC,0.558,1.3,0.314,-0.124

# Whole records as entered above.
# GATGGACCCTATACGCGGCGTGGCTAGTGGGAGGGGGCATCTCTGTGAGGCATGTTTATGAAAAGGCAGTGCAGGCCTGGGCCTGTCCTCAGCACTGGCCCTTGTCAAGGCCTGTTTCCTTGAGCCTGGAGTCCTTTGGGAGCTGTGAGAACCAAAAGAGAAACGGCACACCTGTACATTTACTCATCCTTTTAATTTAGGCAAGGATTCTGCCAGTCGGATAGTGTTCC is listed with binding signal (log2 relative supershift) (KLF4 + histone octamer): 2.57; binding signal (log2 relative supershift) (SOX2 + histone octamer): 0.306; binding signal (log2 relative supershift) [1]: 0.168; binding signal (log2 relative supershift) (OCT4 + histone octamer): -0.0469
# GATGGACCCTATACGCGGCATGAGGAACAGCGTTTGTCTTTGTAACAGCTTGAAGAAAGACCCTTTCCAGGACCCAGTCATGCAGTTACAATCTTGACCTCTTTCTTATGCTGGGAACATGCATACAGCAGCACCTCCCATGTGTTTTCTTGTCCCATTGACTGTCCATTCACTTCCCATCTGTTTTGCAGTCTTAAAGGAACAGAAGGGTGCCAGTCGGATAGTGTTCC is listed with binding signal (log2 relative supershift) (KLF4 + histone octamer): 0.852; binding signal (log2 relative supershift) (SOX2 + histone octamer): 1.3; binding signal (log2 relative supershift) [1]: 0.706; binding signal (log2 relative supershift) (OCT4 + histone octamer): -0.237
